Laboratory results taken from patent US9233067B2, “Silk particles for controlled and sustained delivery of compounds” (Amsilk GmbH, priority 2009, dated 2016).

Assays:
[1] = system: eADF4(C16) particles; assay: Drug loading of eADF4(C16) particles (residual drug in supernatant by UV-Vis); assay type: physicochemical; conditions: 21 nmol silk protein, 0.21 μmol model drug, 10 min, room temperature; for Experimental drug content: wt drug/wt spider silk protein particles
[2] = system: C16 spider silk particles; assay: Loading of C16 spider silk particles with lysozyme (Micro BCA of supernatant); assay type: physicochemical; conditions: 30% w/w-ratio, pH 7.0

Molecule	Encapsulation efficiency (loading efficiency) [1] [%]	Experimental drug content [1] [w/w %]	further results
CN[C@@H](C)[C@H](O)c1ccccc1 [Ephedrine*HCl, Ephedrine]	20.7	0.88	–
CCOc1ccc2nc3cc(N)ccc3c(N)c2c1 [Ethacridine lactate]	–	7.07	Encapsulation efficiency (loading efficiency) ([1]; listed as Ethacridine lactat): 98.2%; Encapsulation efficiency (loading efficiency) ([1]; listed as ethacridine lactate): more than 98%
COc1ccc(Cc2nccc3cc(OC)c(OC)cc23)cc1OC [Papaverine*HCl, Papaverine]	47.0	3.71	–
CCN(CC)CCOC(=O)c1ccc(N)cc1 [Procaine*HCl, Procaine]	38.0	2.16	–
CC(C)NCC(O)COc1cccc2ccccc12 (centres unmarked) [Propranolol*HCl, Propranolol]	–	2.78	–
CCCCNc1ccc(C(=O)OCCN(C)C)cc1 [Tetracaine*HCl, Tetracaine]	53.0	3.34	–
Lysozyme: protein compound with an isoelectric point of 11.35 and a molecular weight of 14.3 kDa	–	–	loading ([2]; 30 mM ionic strength): 28%; loading ([2]; 60 mM ionic strength): 24%; loading ([2]; 100 mM ionic strength): 20%
Methyl violet	98.1	8.37	–

Counter-ions that a name gives are not always drawn.
